Literature values as cited in US20110009403A1, “2-MORPHOLINYLPURINES AS INHIBITORS OF PI3K” (S*BIO Pte Ltd., priority 2007, published 2011).
For at least one compound, name, drawing or mass did not settle the structure.

Test system: sixty tumor cell lines
Conditions: NCI sixty tumor cell lines; cited from earlier work

Compound: CO[C@H]1C[C@@H]2CC[C@@H](C)[C@@](O)(O2)C(=O)C(=O)N2CCCC[C@H]2C(=O)O[C@H]([C@H](C)C[C@@H]2CC[C@@H](O)[C@H](OC)C2)CC(=O)[C@H](C)/C=C(\C)[C@@H](O)[C@@H](OC)C(=O)[C@H](C)C[C@H](C)/C=C/C=C/C=C/1C [rapamycin]
- general sensitivity to the drug (dose): under 2000 ng/ml
